Literature values as cited in patent publication US8592415B2, “Selective kinase inhibitors” (Reaction Biology Corp., priority 2009, dated 2013).

Protein sequences, listed by entry. Tags and fused reporters are not part of them. Lines headed by an entry give the natural chain unless they say otherwise; changes in a name come on top.
UniProt P52333: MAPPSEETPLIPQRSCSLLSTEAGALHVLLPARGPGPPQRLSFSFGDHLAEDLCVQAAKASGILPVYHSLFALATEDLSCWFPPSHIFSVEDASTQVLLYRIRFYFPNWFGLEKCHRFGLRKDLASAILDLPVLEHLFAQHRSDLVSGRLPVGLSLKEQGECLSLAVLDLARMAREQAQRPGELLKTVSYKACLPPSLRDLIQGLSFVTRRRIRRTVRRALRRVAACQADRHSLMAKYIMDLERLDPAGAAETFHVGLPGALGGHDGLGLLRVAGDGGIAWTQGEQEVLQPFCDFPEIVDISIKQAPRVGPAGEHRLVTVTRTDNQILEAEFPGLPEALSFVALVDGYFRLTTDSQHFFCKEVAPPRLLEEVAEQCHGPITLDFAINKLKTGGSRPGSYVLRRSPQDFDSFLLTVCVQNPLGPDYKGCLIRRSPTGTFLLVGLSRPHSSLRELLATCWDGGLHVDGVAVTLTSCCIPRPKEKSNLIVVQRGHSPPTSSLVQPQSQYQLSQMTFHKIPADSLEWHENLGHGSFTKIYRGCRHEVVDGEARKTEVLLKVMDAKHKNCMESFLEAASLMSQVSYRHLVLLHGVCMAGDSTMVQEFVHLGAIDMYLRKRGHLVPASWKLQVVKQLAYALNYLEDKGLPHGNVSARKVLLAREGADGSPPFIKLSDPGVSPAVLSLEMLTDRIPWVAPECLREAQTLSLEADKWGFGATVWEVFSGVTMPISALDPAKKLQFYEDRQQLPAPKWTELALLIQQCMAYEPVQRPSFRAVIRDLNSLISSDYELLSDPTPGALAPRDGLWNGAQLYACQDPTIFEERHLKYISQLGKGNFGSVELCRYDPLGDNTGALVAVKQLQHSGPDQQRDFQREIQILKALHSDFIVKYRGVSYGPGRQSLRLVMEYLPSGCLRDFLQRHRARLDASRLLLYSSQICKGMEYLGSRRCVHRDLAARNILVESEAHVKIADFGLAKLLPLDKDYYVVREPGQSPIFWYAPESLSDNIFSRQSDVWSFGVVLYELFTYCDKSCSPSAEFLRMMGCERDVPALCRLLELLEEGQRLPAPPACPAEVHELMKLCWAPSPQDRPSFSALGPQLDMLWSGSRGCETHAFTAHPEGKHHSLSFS

Biological target: JAK3 (Homo sapiens (Human), UniProt P52333)
Conditions: cited from earlier work

COc1cc2ncnc(Nc3ccc(O)c(Br)c3)c2cc1OC [WHI-P-154]
JAK3 IC50s: low μM ranges
